# Primary screen of a compound library

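Whole-cell assay for inhibitors of Mycobacterium tuberculosis growth, labelled Cornell in the record; the read-out is not stated. The concentration is filed as 10 mM, unlikely as a test dose, so the dose is not known. The record gives no direction; compounds strong in two other growth screens of this library score well above the rest, so higher reads as stronger inhibition. Size under these conditions: about 53,000 compounds, about 900 of them at 50% or above in at least one test.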

Results are given as percent effect. How 0% and 100% were set is not recorded. Most values in the screen are low, and negative values occur. The compounds are a random part of those screened.

Compound | effect
O=C1CCNc2ncc(-c3ccc(Cl)cc3)cc2CN1C1CC1 | 3.033
CCCS(=O)(=O)N1CCC2(CN(c3ccccc3)C(=O)CN2C)C1.O=C(O)C(F)(F)F (stereo not given) | 7.906
Cc1c(C(=O)N2CCC(O)(CN(C)C)C2)c2ccccc2n1C (stereo not given) | -42.94
CO[C@H]1CCN(S(=O)(=O)c2cn(C)cn2)[C@H]1Cc1cccnc1.O=C(O)C(F)(F)F.O=C(O)C(F)(F)F | 25.81
[H][C@@]12CCN(C[C@@H]1c1cc(-c3cccs3)nn1C)[C@@H](CNC(=O)NCC)C2 | -0.3949
CCc1nnc(Nc2cccc(C3CCN(S(=O)(=O)N(C)C)CC3)n2)s1 | -15.22
Cc1ccc(N2CCC3(CN(CCO)CCC3(F)F)C2)nn1.O=C(O)C(F)(F)F (stereo not given) | 21.47
CNS(=O)(=O)Cc1cccc(CNc2ccc(Cl)cn2)c1 | 13.22
CC1c2ncc(Cn3cccn3)n2CCN1c1ncccn1.O=C(O)C(F)(F)F (stereo not given) | -0.8364
Cc1nc(CN2CCC3(C2)CN(C(=O)c2conc2C)C3)cs1 | 1.198
O=C(O)C(F)(F)F.O=C(O)C(F)(F)F.O=C(O)C(F)(F)F.[H][C@@]12C[C@H](C(=O)NCCN(C)C)N(C(C)C)[C@]1([H])CN(c1ncccn1)C2 | 24.2
O=S(=O)(NCCN1CCCCC1Cn1cncn1)c1ccccc1 (stereo not given) | 14.65
CC(=O)c1c(C)nn(CC(=O)N2Cc3cnc(C(C)(C)C)nc3C2)c1C | 10.78
CCn1nc(C)c2nc(C)nc(NC3CCCC3)c21 | 42.26
CSCC(=O)NC1CCN(C(C)c2ccccc2)CC1 (stereo not given) | -2.849
CC(O)CNC(=O)NCc1ccc(N2CCNC(=O)C2)cc1 (stereo not given) | 1.664
CSc1ccccc1NC(=O)c1ccc(N2CCOCC2)nn1 | 11.58
COc1ccc(OC2CCN(Cc3ccn(C)c(=O)c3)CC2)cc1 | -23.63
O=C(O)C1(n2ccc(-c3ccco3)n2)CCN(Cc2ccccn2)CC1 | 24.28
Cc1csc2c(C3CCN(CCOc4ccccc4F)CC3)nc(C)n12 | -14.57
CCOCc1ncn2c1CN(C(=O)c1ccoc1)CC2 | 6.471
O=C(NCc1ccc(N2CC=CC2)cc1)Nc1nnc(C2CC2)s1 | -29.07
CO[C@@H]1CCN(C(=O)c2cc(C)on2)C[C@@H]1Cc1ccccc1 | -19.48
COCc1ccccc1CNC(=O)CNc1ccccc1C(C)=O | 28.03
CCOc1ccc(Cl)c(C(=O)N2CCCC(N3CCCC3)C2)n1 (stereo not given) | 18.16
CCOc1cc(C(=O)N(C)C)ccc1NC(=O)c1ccsc1 | 2.2
CC(C)n1ncc2c1NC(=O)CC21C(=O)Nc2cc(Cl)cc(Cl)c21 (stereo not given) | 20.72
[H][C@@]12CCN(Cc3cccc4ccccc34)C[C@]1(c1nnc(C)o1)CCO2 | 7.243
CCc1ccc2c(c1)C(CCNC(=O)CCc1ccsc1)C(=O)N2 (stereo not given) | 14.42
O=C(O)C(F)(F)F.[H][C@@]12CN(Cc3nccs3)C[C@]1([H])C(=O)N(c1cncnc1)C2 | 21.5
O=C(c1ccc(C2CCCN2C(=O)c2ccc[nH]2)s1)N1CCSCC1 (stereo not given) | -5.303
Cn1nnc2cc(C(=O)N3CCCC3Cc3ccccc3)ccc21 (stereo not given) | 3.428
COc1cc2c(cc1OC)S(=O)(=O)N(Cc1cnn(C)c1)C2=O | 1.726
NC(=O)CN1CCCN(C(=O)Cc2ccc3c(c2)OCCO3)CC1 | -38.08
Cc1ccc2[nH]c(CNC(=O)C3CC4(CCNCC4)CN3C)nc2c1C (stereo not given) | -24.2
Cc1ccc(CN(CCN(C)C)Cc2nc3ccccc3[nH]2)s1 | 7.558
Cn1cc(S(=O)(=O)Nc2ccc3[nH]c(C4CCC4)nc3c2)cn1 | -8.385
O=C1CCCN1CC1CN(C(=O)CC2CCCC2)Cc2nccn2C1 (stereo not given) | 21.41
CCOc1cccc(C(=O)Nc2ccn(CC)n2)c1 | -10.35
Cn1cnnc1CNC(=O)Nc1ccc(OC2CCC2)c(F)c1 | -23.44
Cc1cnn(CC2CCCCN2C(=O)CC(F)(F)F)c1 (stereo not given) | -8.306
CN(CC(=O)N1CCCC1Cn1cccn1)c1cnccn1 (stereo not given) | 9.266
Cc1cc(C(=O)N2CCCN(Cc3nccn3C)CC2)no1 | -24.03
O=C(O)C(F)(F)F.[H][C@@]12CN(Cc3ccsc3)CCO[C@]1([H])CN(C(=O)C1CC=CC1)C2 | 10.55
Cc1cc2c(cc1C)OC1(C=C2)CCN(CC(=O)N2CCOCC2)CC1 | 44.67
CC(=O)NCC(=O)N1CCCC2(CCC(=O)N(CCc3c[nH]cn3)C2)C1 (stereo not given) | -40.37
Cc1ccc(C(CNCc2ncc[nH]2)N2CCOCC2)s1 (stereo not given) | 7.539
Cc1ccccc1S(=O)(=O)N1CCc2c(ncnc2N(C)C)C1 | -29.8
COc1ccc(S(N)(=O)=O)cc1C(=O)N(C)Cc1cc(C)on1 | -14.67
CC(C)CC(=O)Nc1ccc2c(c1)ncn2CC(=O)NCCN(C)C | -37.8
[H][C@@]12COC[C@]1(CNS(C)(=O)=O)CN(C(=O)Cc1ccccc1F)C2 | -6.033
Cc1ccc(C)c(S(=O)(=O)CCN2CCc3c(ncn3C)C2)c1 | -23.25
CN(Cc1ccco1)C(=O)CN1C(=O)c2ccccc2C1=O | 17.2
[H][C@]12CC[C@]([H])(CN(C(=O)N(C)C)C1)N(Cc1nnc(-c3ccco3)o1)C2 | -11.16
Cc1cccc(C(=O)NCc2ccc(CS(N)(=O)=O)cc2)n1 | -104.7
CCS(=O)(=O)c1ccc(N2CCC(NC(=O)C3CCCCC3)CC2)cc1 | 0.3854
CCCC(=O)N1CCC(c2nn(C)c(=O)n2-c2ccccc2)CC1 | -33.82
CC(C)OC(=O)N1CCCC2(CCC(=O)N(CCc3c[nH]cn3)C2)C1 (stereo not given) | -1.169
CCSc1ncc(-c2nccn2CCN(C)C)cn1 | 1.703
O=C(O)C(F)(F)F.O=C(O)C(F)(F)F.O=C(O)C(F)(F)F.[H][C@@]12C[C@@H](Oc3cncnc3)CN1CCN(Cc1cccnc1)C2 | 2.842
O=c1c2cc3c(cc2nnn1Cc1ccccc1Cl)OCCO3 | -33.28

Some entries from above, unchanged:

{"compound": "CSc1ccccc1NC(=O)c1ccc(N2CCOCC2)nn1", "effect": 11.58}
{"compound": "CSCC(=O)NC1CCN(C(C)c2ccccc2)CC1", "stereo": "stereo not given", "effect": -2.849}
{"compound": "Cc1csc2c(C3CCN(CCOc4ccccc4F)CC3)nc(C)n12", "effect": -14.57}
{"compound": "CCCC(=O)N1CCC(c2nn(C)c(=O)n2-c2ccccc2)CC1", "effect": -33.82}
{"compound": "Cc1cc2c(cc1C)OC1(C=C2)CCN(CC(=O)N2CCOCC2)CC1", "effect": 44.67}
{"compound": "NC(=O)CN1CCCN(C(=O)Cc2ccc3c(c2)OCCO3)CC1", "effect": -38.08}
{"compound": "CN(CC(=O)N1CCCC1Cn1cccn1)c1cnccn1", "stereo": "stereo not given", "effect": 9.266}

Measurements from “University of Dundee, Small-Polar-MMV Screening Library” (2021), ChEMBL document CHEMBL3988442.